From patent US6518063
For some assays here: For at least one entry, the source does not settle the construct or the ends of the probe. For some assays here: A negative result means that nothing was seen under these conditions. For some assays here: At least one result comes from cells or an extract, where the contact may be indirect.

Amino acid sequences for entries named in this document (tags omitted). Chains listed by the source or under a name are the forms on record and can include a tag or linker. Residues count along the entry.
UniProt Q08775, other isoform, or with tags, fused parts or gaps: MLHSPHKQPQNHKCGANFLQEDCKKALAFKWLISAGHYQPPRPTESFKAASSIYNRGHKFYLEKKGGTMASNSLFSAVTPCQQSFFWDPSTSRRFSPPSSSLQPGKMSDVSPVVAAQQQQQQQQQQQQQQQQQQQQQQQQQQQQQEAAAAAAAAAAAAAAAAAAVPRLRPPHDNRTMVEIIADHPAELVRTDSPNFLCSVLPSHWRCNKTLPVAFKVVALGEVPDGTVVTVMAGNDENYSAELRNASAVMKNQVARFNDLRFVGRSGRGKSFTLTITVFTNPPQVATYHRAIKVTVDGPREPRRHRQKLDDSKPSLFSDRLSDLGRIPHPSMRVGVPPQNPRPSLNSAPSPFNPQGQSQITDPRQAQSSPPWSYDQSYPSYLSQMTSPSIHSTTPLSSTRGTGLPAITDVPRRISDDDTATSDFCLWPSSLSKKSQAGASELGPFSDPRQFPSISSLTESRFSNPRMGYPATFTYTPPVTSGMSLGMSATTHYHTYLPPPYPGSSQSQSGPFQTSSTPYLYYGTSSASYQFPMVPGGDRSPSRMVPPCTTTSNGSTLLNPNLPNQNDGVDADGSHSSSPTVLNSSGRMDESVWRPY
UniProt Q08775, 188-607, stated change not applied: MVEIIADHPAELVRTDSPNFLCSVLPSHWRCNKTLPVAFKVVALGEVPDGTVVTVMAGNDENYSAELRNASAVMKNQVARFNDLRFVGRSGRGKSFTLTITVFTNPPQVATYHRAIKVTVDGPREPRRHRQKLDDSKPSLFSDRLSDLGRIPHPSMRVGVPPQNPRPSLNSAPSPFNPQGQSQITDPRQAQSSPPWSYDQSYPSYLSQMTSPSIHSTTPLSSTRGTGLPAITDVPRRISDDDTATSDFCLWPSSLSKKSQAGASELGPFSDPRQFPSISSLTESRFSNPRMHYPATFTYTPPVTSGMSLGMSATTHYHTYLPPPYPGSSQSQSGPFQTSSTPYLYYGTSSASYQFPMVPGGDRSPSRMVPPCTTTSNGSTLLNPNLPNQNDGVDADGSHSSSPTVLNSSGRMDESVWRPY
UniProt Q08775, 99-607, stated change not applied: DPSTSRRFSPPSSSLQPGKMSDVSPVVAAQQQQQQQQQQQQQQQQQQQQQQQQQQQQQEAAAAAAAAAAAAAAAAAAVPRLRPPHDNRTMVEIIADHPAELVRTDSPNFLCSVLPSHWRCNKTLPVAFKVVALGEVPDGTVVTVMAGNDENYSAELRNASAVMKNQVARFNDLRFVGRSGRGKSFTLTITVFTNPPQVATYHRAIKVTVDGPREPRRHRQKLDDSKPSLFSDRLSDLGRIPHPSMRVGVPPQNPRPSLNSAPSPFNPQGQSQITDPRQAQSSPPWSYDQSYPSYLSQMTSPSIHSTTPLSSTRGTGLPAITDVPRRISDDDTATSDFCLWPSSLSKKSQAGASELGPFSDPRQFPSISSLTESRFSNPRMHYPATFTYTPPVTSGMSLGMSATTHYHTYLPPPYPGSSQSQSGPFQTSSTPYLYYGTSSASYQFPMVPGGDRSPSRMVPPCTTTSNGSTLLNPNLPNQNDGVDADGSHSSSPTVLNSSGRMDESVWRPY
UniProt Q08775, 118-607, stated change not applied: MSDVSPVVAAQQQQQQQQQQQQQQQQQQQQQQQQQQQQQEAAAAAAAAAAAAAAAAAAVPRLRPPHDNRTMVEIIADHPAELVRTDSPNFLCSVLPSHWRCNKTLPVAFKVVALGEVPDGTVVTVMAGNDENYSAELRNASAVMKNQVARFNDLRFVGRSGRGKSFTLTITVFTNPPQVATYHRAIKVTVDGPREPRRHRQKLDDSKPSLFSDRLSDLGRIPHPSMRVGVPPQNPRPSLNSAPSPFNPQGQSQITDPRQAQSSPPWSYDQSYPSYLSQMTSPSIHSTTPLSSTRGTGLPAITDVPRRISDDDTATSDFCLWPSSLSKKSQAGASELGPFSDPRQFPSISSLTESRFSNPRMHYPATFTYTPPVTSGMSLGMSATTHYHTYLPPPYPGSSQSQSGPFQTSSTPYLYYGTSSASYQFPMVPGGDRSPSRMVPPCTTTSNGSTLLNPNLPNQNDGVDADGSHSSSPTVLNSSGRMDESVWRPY
UniProt Q08775, 80-607: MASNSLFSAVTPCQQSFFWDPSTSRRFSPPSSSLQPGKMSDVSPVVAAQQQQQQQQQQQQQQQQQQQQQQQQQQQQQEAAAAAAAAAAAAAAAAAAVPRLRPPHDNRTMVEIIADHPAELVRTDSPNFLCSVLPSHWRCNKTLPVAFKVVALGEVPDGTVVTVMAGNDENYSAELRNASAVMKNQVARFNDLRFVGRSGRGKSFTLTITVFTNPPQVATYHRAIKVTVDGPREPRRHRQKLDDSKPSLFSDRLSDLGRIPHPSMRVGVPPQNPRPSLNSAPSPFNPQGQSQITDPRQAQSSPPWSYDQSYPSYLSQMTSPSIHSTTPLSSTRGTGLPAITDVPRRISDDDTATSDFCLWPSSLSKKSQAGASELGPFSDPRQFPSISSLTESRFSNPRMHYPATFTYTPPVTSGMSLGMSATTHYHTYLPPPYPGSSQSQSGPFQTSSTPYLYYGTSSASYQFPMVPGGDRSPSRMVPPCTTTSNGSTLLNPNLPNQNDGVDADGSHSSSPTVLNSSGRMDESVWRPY

Legend:
[1] = target: His-Osf2/Cbfa1 (Mus musculus) (UniProt Q08775); assay: EMSA; conditions: purified recombinant protein, protein details: N-terminal 6xHis (pV2a), E. coli, Ni resin, label: 32P
[2] = target: Osf2 delta(1-38,82-96) deletion 1-38 and 82-96 (Mus musculus) (UniProt Q08775); assay: binding assay; conditions: stated capable of binding OSE2; method not stated; protein in cells; label: 32P
[3] = target: Osf2 delta1-108 deletion 1-108 (Mus musculus) (UniProt Q08775); assay: binding assay; conditions: stated capable of binding OSE2; method not stated; protein in cells; label: 32P
[4] = target: Osf2 delta1-19 deletion 1-19 (Mus musculus) (UniProt Q08775); assay: binding assay; conditions: stated capable of binding OSE2; method not stated; protein in cells; label: 32P
[5] = target: Osf2 delta1-38 deletion 1-38 (Mus musculus) (UniProt Q08775); assay: binding assay; conditions: stated capable of binding OSE2; method not stated; protein in cells; label: 32P
[6] = target: Osf2 delta49-96 (QA deletion) (Mus musculus) (UniProt Q08775); assay: binding assay; conditions: stated capable of binding OSE2; method not stated; protein in cells; label: 32P
[7] = target: Osf2 delta82-96 (Mus musculus) (UniProt Q08775); assay: binding assay; conditions: stated capable of binding OSE2; method not stated; protein in cells; label: 32P
[8] = target: Osf2 delta89-96 (Mus musculus) (UniProt Q08775); assay: binding assay; conditions: stated capable of binding OSE2; method not stated; protein in cells; label: 32P
[9] = target: Osf2/Cbfa1 (Mus musculus) (UniProt Q08775); assay: activity in cells; conditions: p4OSE2alpha1(I)-luc, COS cells; protein in cells; protein details: pCMV5 expression; only the site is given
[10] = variant of Osteocalcin (OG2) OSE2

| Sequence | binding result [1] | binding result [1, 10] | other results |
| --- | --- | --- | --- |
| AAATTTAGACTCCAACCTCAGCA (double strand) [Bsp OSE2] | binds |  |  |
| AGCTGCAATCACCAAACACAGCA (double strand) [OSE2 mutant 6] |  | no binding |  |
| AGCTGCAATCACCAACCACAGCA (double strand) [Osteocalcin (OG2) OSE2] |  |  | binding result ([1]; 20 mM Tris pH 8, 10 mM NaCl, 3 mM EGTA, poly(dI.dC), RT, abolished by anti-Cbfa antiserum): binds; binding result [2]: binds; binding result [3]: binds; binding result [4]: binds; binding result [5]: binds; binding result [6]: binds; binding result [7]: binds; binding result [8]: binds |
| AGCTGCAATCACCAACCAGAGCA (double strand) [OSE2 mutant 7] |  | no binding |  |
| AGCTGCAATCACCAGACACAGCA (double strand) [OSE2 mutant 4] |  | no binding |  |
| AGCTGCAATCACCAGCCACAGCA (double strand) [OSE2 mutant 5] |  | no binding |  |
| AGCTGCAATCACCGGCCACAGCA (double strand) [OSE2 mutant 3] |  | no binding |  |
| AGCTGCAATCACGTACCACAGCA (double strand) [OSE2 mutant 2] |  | no binding |  |
| AGCTGCACGATCCAACCACAGCA (double strand) [OSE2 mutant 1] |  |  | binding result ([1]; mutation outside core, binding unaffected, variant of Osteocalcin (OG2) OSE2): binds |
| CCCTTCCCACACCACCCACACAG (double strand) [alpha1(I) collagen OSE2] | binds |  | activity on this sequence [9]: active |
| CGCCGCAATCACCTACCACAGCA (double strand) [OG1 OSE2] | binds |  |  |
| CGCTCTTTGTGCAAACCACACAG (double strand) [Osteopontin OSE2] | binds |  |  |
